No constants are given. Whether binding was seen depends on the method and setting. Some entries that bind do so weakly or less than the wild type.
T1: CLL-1 on the surface of CLL-1-positive AML cell lines (HL-60 WT, U937) (human) (UniProt Q5QGZ9)
T1 sequence (looked up): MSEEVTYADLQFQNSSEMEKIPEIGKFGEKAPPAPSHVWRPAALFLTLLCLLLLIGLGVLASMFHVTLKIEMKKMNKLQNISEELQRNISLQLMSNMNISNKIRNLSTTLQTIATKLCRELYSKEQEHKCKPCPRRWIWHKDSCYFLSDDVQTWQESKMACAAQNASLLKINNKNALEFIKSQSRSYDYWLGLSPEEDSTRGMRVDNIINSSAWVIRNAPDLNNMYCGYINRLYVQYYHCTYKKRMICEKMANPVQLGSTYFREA

T2: biotinylated recombinant CLL-1 extracellular domain (ECD) protein (UniProt Q5QGZ9)
T2 sequence (biotinylated (site not stated), looked up): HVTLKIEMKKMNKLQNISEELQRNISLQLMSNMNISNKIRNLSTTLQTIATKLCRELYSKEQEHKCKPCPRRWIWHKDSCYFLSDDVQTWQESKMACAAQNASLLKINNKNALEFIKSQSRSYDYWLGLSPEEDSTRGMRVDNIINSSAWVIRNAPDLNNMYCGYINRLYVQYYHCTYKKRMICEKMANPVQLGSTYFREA


How the values were obtained:
[1] = target: T1, CLL-1 on the surface of CLL-1-positive AML cell lines (HL-60 WT, U937) (human); experiment: multi-point flow cytometry, HL-60 cell surface
[2] = target: T1, CLL-1 on the surface of CLL-1-positive AML cell lines (HL-60 WT, U937) (human); experiment: flow cytometry, HL-60, 200 nM; secondary-only line about 2x10^3
[3] = target: T1, CLL-1 on the surface of CLL-1-positive AML cell lines (HL-60 WT, U937) (human); experiment: flow cytometry, U-937, 200 nM; secondary-only line about 2.5x10^3
[4] = target: T2, biotinylated recombinant CLL-1 extracellular domain (ECD) protein; experiment: composite data of the binding assays (FIGS. 12A and 12B)

Binder | binding [1] | binding [2] | binding [3] | binding [4]
Anti-CLL-1 Binder Clone 6 (scFv, not shown: small tags and cut ends) scFv: QSVLTQPPSVSAAPGQKVSIFCSGGSSNIGKNYVSWYQQLPGTAPKLLIYENQHRPSGIPDRFSGSKSGTSATLGITGLQTGDEADYYCATWDDSLSAGVFGGGTELTVLGGGGSGGGGSGGGGSQLVQSGAEVRKPGESLKISCKGSGYSFTSYWIGWVRQMPGKGLEWMGFIYPGDSDTRYSPSFQGQVTISADKSISTAYLQRSSLKASDTAMYYCARLGGYSGYDSEVFYLDYWGQGTTVTVSS | binds | binds | binds | binds
Anti-CLL-1 Binder Clone 2 (scFv, not shown: small tags and cut ends) scFv: QSVLTQPLSVSVALGQTARITCGGNNIGSKNVHWYQQKAGQAPVLVIQRDSNRPSGIPERFSGSNSGNTATLTISRAQAGDEADYFCQVWDSNTYVFGTGTKLTVLGGGGSGGGGSGGGGSEVQLVESGGGLVKPGGSLRLSCAASGFTFSDYYMSWIRQAPGKGLEWVSYISSSGSTIYYADSVKGRFTISRDNAKNSLYLQMNSLRDEDTAVYYCARQSAEIVGAFDHWGQGTMVTVSS | binds | binds | binds | –
Anti-CLL-1 Binder Clone 4 (scFv, not shown: small tags and cut ends) scFv: QSVVTQPPSVSAAPGQKVTISCSGSSPNIGKNYVSWYQQLPGTAPKLLIYDNNKRPSGIPDRFSGSKSGTSATLGITGLQTGDEADYYCGTWDSSLSGYVFGTGTKVTVLGGGGSGGGGSGGGGSQVQLVESGGGVVQPGRSLRLSCAASGFTFSSYGMHWVRQAPGKGLEWVAFISHDGSNKYYADSVKGRSTISRDNSKSTLFLQMNSLRDEDTAVYFCAREGQLTTSWDFFDYWGHGTLVTVSS | binds | binds | binds | –
Anti-CLL-1 Binder Clone 10 (scFv, not shown: small tags and cut ends) scFv: DIQMTQSPSFLSASVGDRVTITCRASQGISSYLAWYQQKPGKAPKLLIYSASSLQSGVPSRFSGSGSGTDFTLTISSLQPEDFATYYCQQSYNSPTFGQGTRLEIKGGGGSGGGGSGGGGSQVQLVQSGAEVKKPGASVKVSCKASGYTFTGYYMHWVRQAPGQGLEWMGWMNPNSGNTGYAQKFQGRVTMTRNTSISTAYLELTSLTSDDTAVYYCARGDTGDFFDHWGQGTLVTVSS | binds | binds | binds | –

Next, values leading:

binding [1] | binding [2] | binding [3] | binding [4] | Binder
binds | binds | binds | – | Anti-CLL-1 Binder Clone 40 (scFv, not shown: small tags and cut ends) scFv: QSVLTQPPSVSAAPGQKVTISCSGSSSNIGNNYVSWYQQLPGTAPKLLIYDNNKRPSGIPDRFSGSESGTSATLGITGLQTGDEADYYCGTWDSSLSAWVFGGGTQLIILGGGGSGGGGSGGGGSQVQLQQSGPGLVKPSQTLSLTCAISGDSVSSNSAAWNWIRQSPSRGLEWLGRTHYRSKWYNDYAVSVKSRITISADTSKNQFSLQLNSVTPEDTAVYYCARDRYTVRPDAFDIWGQGTTVTVSS
binds | binds | binds | – | Anti-CLL-1 Binder Clone 12 (scFv, not shown: small tags and cut ends) scFv: DIQMTQSPSSLSASVGDRVTITCQASQDISNYLNWYQQKPGKAPKLLIYDASNLETGVPSRFSGSGSGTDFTLTISSPQPEDLATYYCQQANSFPFTFGQGTKVEIKGGGGSGGGGSGGGGSQVQLVQSGAEVKKPGSSVKVSCKASGYSFTRNDITWVRQANGRGLEWLGRLNPNNGDTVYAEVFQGRVAMTRDTSTDTAYMELASLKSDDTAVYFCARGFWSFDVWGQGTMVTVSS
binds | binds | binds | binds | Anti-CLL-1 Binder Clone 38 (scFv, not shown: small tags and cut ends) scFv: DIQMTQSPSTLSASVGDRVTITCRASQSISSWLAWYQQKPGKAPKLLIYTASSLQSGVPSRFSGSESGTDFTLTISSLQPEDFATYYCQQSYSTPLTFGGGTKVDIKGGGGSGGGGSGGGGSQVQLVQSGAEVKKPGASVKVSCKASGYTFTGYYMHWVRQAPGQGLEWMGWINPNSGGTNYAQKFQGRVTLTRDTSITTAYLELTSLTSDDTAVYYCARGDTGDFFDHWGQGTLVTVSS
binds | binds | binds | binds | Anti-CLL-1 Binder Clone 20 (VHH, not shown: small tags and cut ends) VHH: QVQLVQSGGGLVQPGGSLRLSCAASDFSFSYYEMSWVRQAPGKGLEWVSTISGSGDSTYYADSVKGRFTISRDNTKNTLYLQMNTLRAEDTATYYCMTDGETWGTHRYTVYWGQGALVTVSS
binds | binds | binds | binds | Anti-CLL-1 Binder Clone 11 (scFv, not shown: small tags and cut ends) scFv: QSVLTQPASVSGSPGQSITISCTGTSSDVGASNSVSWYQRHPGKPPKLMIYDVSNRPSGISNRFSGSKSGNTASLTISGLQSEDEADYYCSSYTGSSTFVVFGGGTQLIILGGGGSGGGGSGGGGSEVQLVESGGGVVQPGGSLRLSCAASGFTFSSYWMSWVRQAPGKGLEWVANIRQDGSEKYYVDSVKGRFTISRDNAKNSLYLQMNSLRAEDAAVYYCAREQDTAMVAFDYWGQGTLVTVSS

From patent publication US20250333515A1
